Measurements reported in PubChem BioAssay AID540276 (National Center for Advancing Translational Sciences (NCATS), 2011).
“And” between values parts separate entries of the source, which are not always exact repeats. Equal values may be shown once. Hit rate of the full screen: of about 300,000 compounds, about 5,400 (1.8%) were called active. Inconclusive results, whose numbers are uncertain, are shown with a selection of clear calls. Calls follow the shape of the full dose curve; tested in HEK293 cells. Potencies of inconclusive entries are doubtful fits and often do not repeat.
Potency is read from the fitted curve at half-maximal effect.

Experiment: qHTS for inhibitors of binding or entry into cells for Marburg Virus
Details: Marburg virus pseudotyped entry inhibition, cell reporter; series mostly up to 37.8 µM
For `COc1ccc(/C=C/C(=O)c2ccc(NS(=O)(=O)c3ccc(C)cc3)cc2)cc1O`, the Potency was inconclusive: 25.1 µM [inhibitor, single point].
In the case of `Cc1onc(-c2ccccc2)c1C(=O)OCC(=O)NCc1ccc(F)cc1`, the Potency is reported as “inactive”.
With `O=[N+]([O-])c1ccc(OCC2CC(c3ccccc3)=NO2)cc1` (stereo unspecified) the Potency was “inactive”.
For `COc1cc(NC(=O)CC(C)n2ccnc2)cc(OC)c1` (stereo unspecified), the Potency was “inactive”.
In the case of `Oc1cc(CNCc2ccccc2)c(O)cc1CNCc1ccccc1`, the Potency is reported as “inactive”.
For `O=C(c1ccc2ccccc2c1)N1CCN(c2ccc(O)cc2)CC1`, the Potency was “inactive”.
In the case of `Cc1cccc(N(C)S(=O)(=O)c2c[nH]c3ccc([N+](=O)[O-])cc23)c1`, the Potency is reported as inconclusive: 35.5 µM [inhibitor, single point].
With `Cc1ccc2c(c1)N(N=O)CCC2` the Potency was inconclusive: 11.2 µM [activator, partial curve, poor fit].
In the case of `Cc1nc(-c2cccc(Br)c2)ccc1C(=O)O`, the Potency is reported as “inactive”.
For `COC(=O)c1[nH]c2ccccc2c1NC(=O)Oc1ccccc1`, the Potency was “inactive”.
In the case of `CCc1ccc(C(=O)c2cn(CC(=O)Nc3ccc4c(c3)OCCO4)c3ccc(C)cc3c2=O)cc1`, the Potency is reported as “inactive”.
With `COc1ccc2c(c1)OC/C(=C/c1cccs1)C2=O` the Potency was “inactive”.
In the case of `C=C(C)CNC(=S)NN=C1c2ccccc2-c2ccccc21`, the Potency is reported as inconclusive: 35.5 µM [inhibitor, single point].
In the case of `CC1CCN(c2ccc(NC(=O)c3ccc(Br)o3)cc2)CC1`, the Potency is reported as inconclusive: 8.91 µM [inhibitor, partial curve, poor fit].
With `O=S(=O)(NCCN1CCOCC1)c1ccc(Oc2ccccc2Cl)cc1` the Potency was inconclusive: 20 µM [inhibitor, partial curve, poor fit].
With `Cc1cc(C(=O)NNC(=O)/C=C/c2ccc(F)cc2)c(C)o1` the Potency was “inactive”.
In the case of `Cc1ccc(C)c(NC(=O)COc2coc(CN3CCc4ccccc4C3)cc2=O)c1`, the Potency is reported as inconclusive: 1.12 µM [inhibitor, full curve, poor fit].
With `CCc1noc(-c2ccc(N(C)Cc3ccc(OC)cc3)c([N+](=O)[O-])c2)n1` the Potency was “inactive”.
In the case of `COc1ccc([N+](=O)[O-])cc1NS(=O)(=O)c1ccccc1`, the Potency is reported as inconclusive: 0.316 µM [inhibitor, full curve, poor fit].
For `CN(C)c1nc2sc3c(c2c(=O)n1C)CC(C)(C)OC3`, the Potency was “inactive”.
In the case of `Cc1ccc(NC(=O)Nc2ccc3c(c2)CCC3)cc1`, the Potency is reported as inconclusive: 5.62 µM [activator, single point].
With `COc1ccc(-c2cc(C(F)(F)F)nc(SCCC(=O)Nc3cccc(O)c3)n2)cc1` the Potency was inconclusive: 35.5 µM [inhibitor, single point].
For `CC1(C)SC2c3ccccc3C(=O)N2C1C(=O)O` (stereo unspecified), the Potency was “inactive”.
In the case of `COc1ccc(-c2nn[nH]n2)cc1OC`, the Potency is reported as “inactive”.
With `CCOC(=O)c1c(NC(=O)COc2ncnc3ccccc23)sc(C)c1CC` the Potency was inconclusive: 1 µM [activator, single point].
In the case of `CCOC(=O)CNC(=O)N1CCc2ccc(NC(=O)c3ccccc3OC)cc2C1`, the Potency is reported as inconclusive: 35.5 µM [inhibitor, partial curve, poor fit].
For `COc1ccccc1N(CC(O)CN1CCCC1)S(=O)(=O)c1ccccc1` (stereo unspecified), the Potency was inconclusive: 0.562 µM [inhibitor, full curve, poor fit].
With `CCOC(=O)N1CCN(Cc2nc3c(c(=O)n(C)c(=O)n3C)n2Cc2ccccc2C)CC1` the Potency was inconclusive: 1.64 µM [inhibitor, partial curve].
For `CCN=c1scc(-c2ccccc2)n1/N=C/c1ccccn1`, the Potency was inconclusive: 0.631 µM [inhibitor, full curve, poor fit].
In the case of `CC12CCC(C(=O)Nc3cc(Cl)ccc3Cl)(C(Br)C1=O)C2(C)C` (stereo unspecified), the Potency is reported as inconclusive: 0.891 µM [inhibitor, single point].
In the case of `CCC(C)NC(=O)C1CC(=O)N(CCc2ccc(F)cc2)C1` (stereo unspecified), the Potency is reported as “inactive”.
For `O=C(N/N=C/c1cccs1)c1ccc2ncccc2c1`, the Potency was “inactive”.
With `COc1ccc(S(=O)(=O)Cc2ccc(C(=O)NCc3ccc(C)cc3)o2)cc1` the Potency was inconclusive: 20 µM [inhibitor, partial curve, poor fit].
In the case of `O=C1CN(C(=O)COC(=O)c2ccc(N3CCCCCC3)c([N+](=O)[O-])c2)c2ccccc2N1`, the Potency is reported as “inactive”.
For `COc1ccc(CNC(=O)N2CCN(c3ccccc3OC)CC2)cc1`, the Potency was “inactive”.
With `COc1ccccc1C(=O)OCc1c(F)cccc1Cl` the Potency was “inactive”.
In the case of `Cc1ccc(S(=O)(=O)c2nc(S(=O)(=O)c3ccc(C)cc3)c(NC(C)C)s2)cc1`, the Potency is reported as inconclusive: 14.1 µM [inhibitor, partial curve, poor fit].
For `COCc1c(C(=O)N/N=C\c2cccs2)nnn1-c1nonc1N`, the Potency was “inactive”.
With `COc1ccccc1N1CC(O)=C(c2nc3ccccc3c(=O)[nH]2)C1=N` the Potency was “inactive”.
With `Cn1cc(C(F)(F)F)nc1-c1ccc(OCC(O)CNCCOc2ccc(O)c(C(N)=O)c2)cc1` (stereo unspecified) the Potency was inconclusive: 31.6 µM [inhibitor, single point].
In the case of `CCNC(=S)N(Cc1cc2cc(C)c(C)cc2[nH]c1=O)C1CCCC1`, the Potency is reported as inconclusive: 5.62 µM [inhibitor, single point].
With `CC(=O)c1c(C)n(CC(=O)NCc2ccco2)c2ccccc12` the Potency was inconclusive: 35.5 µM [activator, single point].
With `CN(C)S(=O)(=O)c1cccc(COC(=O)C2=COCCO2)c1` the Potency was inconclusive: 35.5 µM [activator, single point].
With `Cc1ccc(S(=O)(=O)NCc2ccc(C(=O)N3CCN(Cc4ccccc4)CC3)cc2)cc1` the Potency was inconclusive: 5.8 µM [inhibitor, partial curve, poor fit].
For `CCc1nnc(N/N=C/c2ccccc2F)n1N`, the Potency was inconclusive: 35.5 µM [inhibitor, single point].
For `CCOc1ccc2cc(C(=O)c3ccccc3)c(=O)oc2c1`, the Potency was inconclusive: 6.31 µM [activator, full curve, poor fit].
With `CCOc1ccccc1C1C2CCCCC2(O)CCN1C(=O)c1cccs1` (stereo unspecified) the Potency was inconclusive: 1.16 µM [inhibitor, single point].
In the case of `COc1cc(CNc2ccc3[nH]c(=O)[nH]c3c2)cc(Br)c1OCc1ccc(F)cc1`, the Potency is reported as inconclusive: 355 nM [inhibitor, full curve, poor fit] and inconclusive: 5.01 µM [inhibitor, full curve, poor fit].
For `COc1ccccc1CNC(=O)c1cc2cc(C)ccc2n1C`, the Potency was inconclusive: 2.51 µM [inhibitor, full curve, poor fit].
For `O=C(Cn1c(C(=O)OCCO)cc2ccccc21)c1ccccc1`, the Potency was inconclusive: 0.316 µM [inhibitor, partial curve, poor fit].
In the case of `CN(CC(=O)Nc1ccccc1C(=O)N1CCCC1)S(=O)(=O)c1ccc(Br)cc1`, the Potency is reported as inconclusive: 20.6 µM [inhibitor, partial curve, poor fit].
With `CCN1C(=O)c2ccccc2Sc2ccc(C(=O)NCCC(C)C)cc21` the Potency was inconclusive: 11.2 µM [inhibitor, partial curve, poor fit].
With `Cc1ccc(C(=O)N/N=C/c2ccc(-c3cccc(C(F)(F)F)c3)o2)cn1` the Potency was inconclusive: 1 µM [inhibitor, full curve].
With `O=C1OC(c2ccc(Cl)cc2)=C/C1=C/c1cccnc1` the Potency was “inactive”.
In the case of `CCN1CCN(c2c(Cl)cccc2NC(=O)c2ccco2)CC1`, the Potency is reported as “inactive”.
In the case of `CCc1ccc(C(=O)CSc2n[nH]c(-c3ccncc3)n2)cc1`, the Potency is reported as “inactive”.
In the case of `OC(COc1ccc(C2C=CCC2)cc1)CN1CCCCC1` (stereo unspecified), the Potency is reported as inconclusive: 16.4 µM [inhibitor, single point].
With `CN(C)CCN(C(=O)c1ccc(S(=O)(=O)N(C)c2ccccc2)cc1)c1nc2ccc(Cl)cc2s1` the Potency was inconclusive: 2.51 µM [inhibitor, partial curve, poor fit].
For `CC(=O)c1cccc(S(=O)(=O)N2CCCC(c3nc4c(nnn4Cc4cccc(Cl)c4)c(=O)[nH]3)C2)c1` (stereo unspecified), the Potency was inconclusive: 35.5 µM [inhibitor, single point].
In the case of `COc1ccc2nc(SCC(=O)N3CC(=O)Nc4ccccc43)c(C#N)cc2c1`, the Potency is reported as inconclusive: 31.6 µM [inhibitor, partial curve, poor fit].
In the case of `O=C(Nc1nccs1)C(=O)c1c[nH]c2ccccc12`, the Potency is reported as inconclusive: 1.26 µM [activator, partial curve, poor fit].
In the case of `COc1ccc(-n2c(-c3ccccc3)cc3c2CCCC3=O)cc1`, the Potency is reported as inconclusive: 20 µM [inhibitor, partial curve, poor fit].
In the case of `O=C(NC(=S)NC(CO)Cc1ccccc1)c1ccc(F)cc1` (stereo unspecified), the Potency is reported as “inactive”.
With `O=C(NCc1ccncc1)c1ccc(Oc2ccccc2)cc1` the Potency was “inactive”.
For `CC(C)c1ccc(/C=C/C(=O)N2CCOCC2)cc1`, the Potency was inconclusive: 3.55 µM [activator, single point].
For `Cc1oc(-c2cccc(Cl)c2)nc1CN1CCC(C(=O)NCc2cccnc2)CC1`, the Potency was inconclusive: 32.6 µM [inhibitor, single point].
In the case of `CC(C)NC(=O)NC(=O)COC(=O)c1c2c(nc3ccccc13)CCC2`, the Potency is reported as inconclusive: 10 µM [inhibitor, partial curve, poor fit].
With `O=C(Nc1nnc(-c2ccccc2F)s1)C1CCCO1` (stereo unspecified) the Potency was inconclusive: 2.91 µM [activator, partial curve, poor fit].
In the case of `O=C(Cn1ncc2ccsc2c1=O)N1CCN(c2ccccc2)CC1`, the Potency is reported as “inactive”.
In the case of `CCOc1ccc(NC(=O)[C@H](Cc2ccccc2)N2Cc3ccccc3C2=O)cc1`, the Potency is reported as “inactive”.
In the case of `CCOCCCNC(=O)C(c1ccc(OC)cc1)N(Cc1ccc2c(c1)OCO2)C(=O)CNC(C)=O` (stereo unspecified), the Potency is reported as inconclusive: 10 µM [activator, partial curve, poor fit].
